Results are given in words; binding and its absence hold for the method and conditions named. In cells and extracts the contact can be indirect. Some binding calls cover weakened binding; strength is not graded here. For some assays here: Tags and fused reporters may be left off the sequences shown.

Assay [1] deals with T1, CCDC88B (mouse (endogenous in thymus, BI-141 T cells and BMDCs)) (UniProt Q4QRL3).
T1 sequence: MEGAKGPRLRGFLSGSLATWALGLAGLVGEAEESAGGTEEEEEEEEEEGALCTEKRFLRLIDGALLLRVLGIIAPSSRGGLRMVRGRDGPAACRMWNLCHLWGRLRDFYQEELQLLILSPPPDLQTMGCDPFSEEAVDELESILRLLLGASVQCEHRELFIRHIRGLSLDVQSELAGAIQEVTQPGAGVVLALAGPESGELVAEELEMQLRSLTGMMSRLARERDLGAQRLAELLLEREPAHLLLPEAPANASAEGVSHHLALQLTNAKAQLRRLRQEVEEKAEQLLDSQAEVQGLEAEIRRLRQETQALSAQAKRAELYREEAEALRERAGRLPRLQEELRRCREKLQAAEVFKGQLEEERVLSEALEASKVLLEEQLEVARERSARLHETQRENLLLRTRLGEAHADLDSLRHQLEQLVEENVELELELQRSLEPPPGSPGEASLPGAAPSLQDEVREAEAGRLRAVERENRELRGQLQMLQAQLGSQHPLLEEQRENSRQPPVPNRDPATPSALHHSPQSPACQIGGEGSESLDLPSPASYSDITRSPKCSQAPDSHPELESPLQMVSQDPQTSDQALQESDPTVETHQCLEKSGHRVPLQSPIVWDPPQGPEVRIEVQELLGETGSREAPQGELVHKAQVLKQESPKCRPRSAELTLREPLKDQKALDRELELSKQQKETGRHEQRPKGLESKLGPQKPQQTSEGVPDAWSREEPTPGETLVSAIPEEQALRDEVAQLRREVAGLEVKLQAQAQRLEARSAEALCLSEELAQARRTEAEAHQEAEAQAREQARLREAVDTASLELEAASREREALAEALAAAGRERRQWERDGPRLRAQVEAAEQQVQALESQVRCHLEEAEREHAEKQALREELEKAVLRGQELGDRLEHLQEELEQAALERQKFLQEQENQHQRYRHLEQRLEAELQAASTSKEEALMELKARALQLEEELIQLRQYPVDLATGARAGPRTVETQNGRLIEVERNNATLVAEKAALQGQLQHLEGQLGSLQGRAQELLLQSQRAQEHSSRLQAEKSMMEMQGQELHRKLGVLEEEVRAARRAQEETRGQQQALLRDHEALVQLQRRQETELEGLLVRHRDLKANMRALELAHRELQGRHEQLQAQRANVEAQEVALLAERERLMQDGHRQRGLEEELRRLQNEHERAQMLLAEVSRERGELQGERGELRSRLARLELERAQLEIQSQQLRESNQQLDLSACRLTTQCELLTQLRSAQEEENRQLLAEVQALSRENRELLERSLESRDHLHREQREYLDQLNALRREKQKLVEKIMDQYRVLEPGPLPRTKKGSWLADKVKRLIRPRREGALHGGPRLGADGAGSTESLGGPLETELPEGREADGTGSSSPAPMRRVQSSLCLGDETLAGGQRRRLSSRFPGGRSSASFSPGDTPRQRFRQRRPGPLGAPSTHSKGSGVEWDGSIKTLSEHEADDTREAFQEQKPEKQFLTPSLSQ
Put plainly: co-IP; BMDC lysates (20 mM HEPES pH 7.4, 300 mM NaCl, 1% NP-40); IP overnight with anti-CCDC88B anti-serum, protein A/G magnetic particles; blot for RASAL3 or ARHGEF2; Ccdc88b^Mut BMDCs as control.

The next assay concerns the target T2, HA-CCDC88B (UniProt Q4QRL3).
T2 sequence: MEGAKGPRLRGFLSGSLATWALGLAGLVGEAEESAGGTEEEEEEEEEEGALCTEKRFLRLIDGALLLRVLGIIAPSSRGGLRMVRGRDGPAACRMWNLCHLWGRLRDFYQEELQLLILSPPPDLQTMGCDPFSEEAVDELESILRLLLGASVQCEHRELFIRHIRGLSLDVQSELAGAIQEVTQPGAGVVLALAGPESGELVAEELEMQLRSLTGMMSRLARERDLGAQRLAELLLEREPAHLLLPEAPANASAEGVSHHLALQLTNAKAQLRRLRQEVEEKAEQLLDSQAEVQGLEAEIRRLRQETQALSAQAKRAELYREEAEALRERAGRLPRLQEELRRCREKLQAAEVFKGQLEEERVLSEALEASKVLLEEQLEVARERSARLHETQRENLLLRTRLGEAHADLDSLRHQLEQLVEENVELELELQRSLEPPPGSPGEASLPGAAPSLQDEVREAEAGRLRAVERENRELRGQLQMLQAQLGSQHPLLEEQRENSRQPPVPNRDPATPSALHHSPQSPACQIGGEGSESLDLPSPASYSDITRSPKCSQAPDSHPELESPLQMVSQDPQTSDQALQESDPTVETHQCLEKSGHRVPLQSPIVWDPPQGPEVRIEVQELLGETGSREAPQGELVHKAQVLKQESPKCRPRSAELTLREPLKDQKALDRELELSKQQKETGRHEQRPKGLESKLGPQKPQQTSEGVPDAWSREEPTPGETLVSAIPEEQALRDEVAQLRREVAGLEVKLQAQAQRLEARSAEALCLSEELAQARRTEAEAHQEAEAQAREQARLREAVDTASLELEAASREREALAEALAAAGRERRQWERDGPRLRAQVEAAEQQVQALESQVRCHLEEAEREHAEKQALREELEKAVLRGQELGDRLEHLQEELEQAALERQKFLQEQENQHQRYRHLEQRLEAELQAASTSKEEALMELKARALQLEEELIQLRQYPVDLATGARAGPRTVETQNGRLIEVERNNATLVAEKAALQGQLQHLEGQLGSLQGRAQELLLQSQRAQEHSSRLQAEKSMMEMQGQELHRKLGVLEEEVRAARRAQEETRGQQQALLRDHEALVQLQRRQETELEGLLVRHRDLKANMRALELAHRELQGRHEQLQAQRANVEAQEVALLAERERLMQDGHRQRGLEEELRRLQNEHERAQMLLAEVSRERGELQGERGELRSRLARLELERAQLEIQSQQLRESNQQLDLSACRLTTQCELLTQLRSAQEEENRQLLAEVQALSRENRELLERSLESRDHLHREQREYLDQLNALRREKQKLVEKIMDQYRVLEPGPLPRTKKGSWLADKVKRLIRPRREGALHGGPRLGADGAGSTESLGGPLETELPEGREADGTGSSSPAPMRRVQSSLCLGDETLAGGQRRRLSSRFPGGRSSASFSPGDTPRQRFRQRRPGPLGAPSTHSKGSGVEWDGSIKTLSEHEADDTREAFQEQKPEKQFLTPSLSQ
In words: co-IP; HEK293T transiently co-transfected pairwise; RIPA lysis buffer (20 mM Tris-HCl pH 7.5, 200 mM NaCl, 1% NP-40); IP with anti-FLAG and blot with anti-HA, or IP with anti-CCDC88B anti-serum and blot with anti-FLAG.

B1: RAS Protein Activator Like 3 (RASAL3) (protein, UniProt Q8C2K5 1-1041)
chain: MKPECGQTMFRTFWSRSRDSSAMDPPLQSEEDSQTQPSLPSPLTSYRWHTGGSGEKAAGGFRWGRFAGWGRALSHQEPMVNSQPAPRSLFRRVLSAPPKESRSNRLRFSKTLWGRHKNVAPLEPKPNPKAPEPELELVADPDLPVAQIPEPPTPDMPVWNIDGFTLLEGKLVMLGEEEGPRQIRVGSASSENSMQAALGNLKDAVRTPGKTEPEAAGSNQVHNVRKLLKRLKEKKRAKSELGAYTPRDGPPSALGSRESLATLSELDLGAERDVRVWPLHPSLLGEPYCFQVTWAGGSLCFSCRSSAERDRWIEDLRRQFQPSQDNVERQEMWLTVWVHEAKGLPRATVPGVRAELWLDGALLARTAPRAGPGQLFWAERFHFEALPPARRLSLRLRSAGPAGATVGRVVLELDEVSIPRAPAAGLERWFPVLGAPAGAVLRARIRVRCLRVLPSERYKELAEFLTFHYARLCGALEPALSAQAKEELAAAMVRVLRATGRAQALVTDLGTAELARCGGREALLFRENTLATKAIDEYMKLVAQEYLQDTLGQVVRCLCASTEDCEVDPSKCPTPELPKHQARLRDSCEEVFENIIHSYNCFPAELGSVFSSWREACKARGSEALGPRLVCASLFLRLLCPAILAPSLFGLAPEHPAPGPARTLTLIAKVIQNLANCAPFGEKEAYMAFMNSFLEDHGPAMQHFLDQVATVDADTTPSGYQGSGDLALQLAVLHVQLCTIFAELDQKTQDSLEPLPTILRAIEEGRPVPVSVPMRLPRISTQVQSSFFSGEKPGFLAPRDLPKHTPLISKSQSLRSFQGAGSWASRRPDEERPQRRPRPVLRTQSVPARRPTHRRPSAGSKPRPKGSLRMGPAPCGRAWTRASASLPRKPSVPWQRQMDQPGDRYQTTGTHRPVGKLAEIQCEVAIFREAQKALSLLVESLSTQVQALKEQQEHFRCQLQDLYSRLGAGISKLDSKGGLPSNGSHRLKSLEQRLTEMECSQDQLRDSLQSLQLLSKTPGSRSQPLPLKAPCVNGADLSMGT
Regarding B1, the binding result in assay [1] is “binds”.

B2: RASAL3-FLAG (protein, UniProt Q8C2K5 1-1041)
chain: MKPECGQTMFRTFWSRSRDSSAMDPPLQSEEDSQTQPSLPSPLTSYRWHTGGSGEKAAGGFRWGRFAGWGRALSHQEPMVNSQPAPRSLFRRVLSAPPKESRSNRLRFSKTLWGRHKNVAPLEPKPNPKAPEPELELVADPDLPVAQIPEPPTPDMPVWNIDGFTLLEGKLVMLGEEEGPRQIRVGSASSENSMQAALGNLKDAVRTPGKTEPEAAGSNQVHNVRKLLKRLKEKKRAKSELGAYTPRDGPPSALGSRESLATLSELDLGAERDVRVWPLHPSLLGEPYCFQVTWAGGSLCFSCRSSAERDRWIEDLRRQFQPSQDNVERQEMWLTVWVHEAKGLPRATVPGVRAELWLDGALLARTAPRAGPGQLFWAERFHFEALPPARRLSLRLRSAGPAGATVGRVVLELDEVSIPRAPAAGLERWFPVLGAPAGAVLRARIRVRCLRVLPSERYKELAEFLTFHYARLCGALEPALSAQAKEELAAAMVRVLRATGRAQALVTDLGTAELARCGGREALLFRENTLATKAIDEYMKLVAQEYLQDTLGQVVRCLCASTEDCEVDPSKCPTPELPKHQARLRDSCEEVFENIIHSYNCFPAELGSVFSSWREACKARGSEALGPRLVCASLFLRLLCPAILAPSLFGLAPEHPAPGPARTLTLIAKVIQNLANCAPFGEKEAYMAFMNSFLEDHGPAMQHFLDQVATVDADTTPSGYQGSGDLALQLAVLHVQLCTIFAELDQKTQDSLEPLPTILRAIEEGRPVPVSVPMRLPRISTQVQSSFFSGEKPGFLAPRDLPKHTPLISKSQSLRSFQGAGSWASRRPDEERPQRRPRPVLRTQSVPARRPTHRRPSAGSKPRPKGSLRMGPAPCGRAWTRASASLPRKPSVPWQRQMDQPGDRYQTTGTHRPVGKLAEIQCEVAIFREAQKALSLLVESLSTQVQALKEQQEHFRCQLQDLYSRLGAGISKLDSKGGLPSNGSHRLKSLEQRLTEMECSQDQLRDSLQSLQLLSKTPGSRSQPLPLKAPCVNGADLSMGT
For the molecule B2, the binding entry with HA-CCDC88B is listed as “binds”.

These data come from PMC10781698.
